Results deposited as PubChem BioAssay AID1508588 (Peter MacCallum Cancer Centre, 2020)
Here is one part, drawn at random, of about 18,000 reagents. 790 of them (4.4%) count as active. 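Calls rest on a combination of fold-change classes in drug and vehicle arms, not all shown here.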 Unmarked entries are inactive.

Screen: 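Knock-downs boosting vemurafenib effects on melanoma cell growth or lactate release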 (primary screen)
System: human WM266.4 melanoma cells (BRAF V600 mutant)
Reagent: siRNA pool against human genes, 40 nM
Timing: 96 h from transfection to read-out
Conditions: vemurafenib 300 nM (about IC25), added 48 h after transfection, for 48 h; comparison arm got DMSO vehicle only
Measurement: 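Cell gain (DAPI nuclei at end minus before drug, mean of two replicates) and medium lactate by absorbance per cell, both as ratio to non-targeting siRNA, also grouped into fold-change classes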
Direction: cell gain with vemurafenib: higher = more cell gain than with non-targeting siRNA; lactate per cell with vemurafenib: higher = more lactate made per cell
Rule for the call: 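a knock-down counts as enhancing when its fold-change classes with vehicle and with vemurafenib, taken together, show a stronger drug effect on cell gain or lactate per cell; exact class pairs not stated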
Meaning of the calls: active = enhances vemurafenib effect; inactive = no enhancement seen

no.	Target gene	cell gain with vemurafenib	lactate per cell with vemurafenib
1	RPL17	0.03	1.08
2	KCNRG	0.05	2.87
3	MINDY2	0.92	0.87
4	ST8SIA5	0.35	2.08
5	ROPN1B	1.26	0.86
6	CDCA7L	0.69	1.29
7	PCP4	0.69	1.28
8	PRSS36	0.86	0.86
9	CFAP418	0.96	0.6
10	ZNF785	1.08	1.01
11	SLC4A10	0.65	0.46
12	CSKMT	0.35 (active)	0.12
13	SPECC1L	0.69	0.36
14	SOCS6	0.66	1.15
15	TSR2	0.27	1.63
16	LDB2	0.76	0.56
17	IL17REL	0.28	2.47
18	CPM	0.24	1.83
19	SH2B1	0.41	1.19
20	TLCD4	0.8	0.76
21	FZD2	0.62	0.75
22	HIP1	0.6	1.25
23	KRT10	0.04	1.79
24	ZNF85	0.28	1.75
25	INTS7	0.31	1.38
26	RNASE1	1.29	0.75
27	ALPP	0.17	2.32
28	CLIC1	0.49	1.82
29	SGCG	0.84	0.71
30	LIPF	1.22	0.54
31	CYP2E1	0.77	1.08
32	CA1	0.95	0.4
33	ATAD3C	0.93	1.02
34	EEF1G	0.39	1.24
